Among the data in article PMC5671938, “Multimerin-2 is a ligand for group 14 family C-type lectins CLEC14A, CD93 and CD248 spanning the endothelial pericyte interface” (Oncogene, 2017) are binding values, retold here.

Chains of the proteins cited; added tags and fusions are not shown. Lines headed by an entry give the natural chain unless they say otherwise; changes in a name come on top.
UniProt Q86T13: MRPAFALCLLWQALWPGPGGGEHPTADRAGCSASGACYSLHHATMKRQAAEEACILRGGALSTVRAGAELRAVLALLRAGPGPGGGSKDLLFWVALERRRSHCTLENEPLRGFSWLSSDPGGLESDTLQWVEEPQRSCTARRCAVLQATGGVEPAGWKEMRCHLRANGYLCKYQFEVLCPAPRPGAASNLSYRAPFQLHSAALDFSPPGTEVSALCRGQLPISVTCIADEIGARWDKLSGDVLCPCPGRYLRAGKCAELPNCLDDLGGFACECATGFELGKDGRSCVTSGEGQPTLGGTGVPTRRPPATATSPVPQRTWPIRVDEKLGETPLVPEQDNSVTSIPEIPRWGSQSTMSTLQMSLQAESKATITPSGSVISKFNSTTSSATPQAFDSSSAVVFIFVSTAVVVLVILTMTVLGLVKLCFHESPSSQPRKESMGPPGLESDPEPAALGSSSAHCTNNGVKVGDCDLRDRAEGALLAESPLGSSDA

Test [1] has as its target CLEC14A lacking the sushi domain (human) (UniProt Q86T13). The test can be described thus: far-Western; lysates of transfected HEK293T separated by SDS-PAGE under non-reducing conditions, on PVDF; probed 1 h with MMRN2^FL-transfected HEK293T lysate (6 x 10^6 cells/ml, diluted 1:50); His tag of the probe detected.
For test [2], the target named is CLEC14A lacking the CTLD (human) (UniProt Q86T13). Described as above.
For test [3], the target named is chimera 2 CLEC14A^THBD(sushi). The test can be described thus: flow cytometry on cells; transfected HEK293T (5 x 10^5) stained with biotinylated MMRN2^495-674 (20 μg/ml), detected with streptavidin-PE; GFP+ cells gated; only the binder purified.
The target in test [4] is chimera 1 CLEC14A^THBD(CTLD). The description is as above.

These are yes or no findings as the source states them, for the method shown. For some of these results: Binding can be weak; no strength is given. For some of these results: Tags and fused reporters may be left off the sequences shown.

Take “full-length multimerin-2 with a polyhistidine tag (MMRN2^FL) (from UniProt Q9H8L6 23-949)”: the binding entry in test [1] and in test [2] was “no binding (tested: lysate diluted 1:50)” each time.

B1: biotinylated MMRN2^495-674 with BirA tag, from E. coli (domain or fragment, UniProt Q9H8L6 495-674)
chain: QKLYLDLDVIREGQRDATRALEETQVSLDERRQLDGSSLQALQNAVDAVSLAVDAHKAEGERARAATSRLRSQVQALDDEVGALKAAAAEARHEVRQLHSAFAALLEDALRHEAVLAALFGEEVLEEMSEQTPGPLPLSYEQIRVALQDAASGLQEQALGWDELAARVTALEQASEPPRP
modifications: biotin (BirA tag for specific biotinylation)
Consider B1, for which the binding result in test [3] is “binds”; in test [4], “no binding (tested: 20 μg/ml)”.
